Assay results taken from PubChem BioAssay AID504594 (Broad Institute, 2011).
“And” between values parts separate entries of the source, which are not always exact repeats. Equal entries are not always repeated. Among all 2,000 compounds or so, fewer than 10 were called active.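 How the source made its calls: active means growth inhibition of at least 75% in every replicate, which also brings the mean inhibition to 75% or more; inconclusive means mean inhibition 75% or more but some replicate under 75%; inactive means the rest.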 The list shows a part of the results.

Assay: reduced viability of yeast carrying PfHsp90 – S. cerevisiae, BacTiter-Glo luminescence, antimalarial PfHsp90 inhibitor project, primary screen (AID 504594);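 further: 0% = DMSO neutral control wells and 100% = 20 µM radicicol control wells; higher value means stronger growth inhibition because the sign is flipped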
Conditions: S. cerevisiae expressing PfHsp90, BacTiter-Glo growth, 48 h; at 9.4 µM; hits give high values
With `CCCCCC(O)c1cccc(OCc2ccc3ccccc3n2)c1` (stereo not given) the growth inhibition was inactive: -0.258%. For `COc1ccc(C2CC(c3ccc([N+](=O)[O-])cc3)=NN2C(=O)c2ccccc2)cc1OC` (stereo not given), the growth inhibition was inactive: -6.56%. In the case of `CC(=O)N1CC2(C)CN(C(C)=O)CC(C)(C1)C2`, the growth inhibition is reported as inactive: -1.23%. With `O=c1ccn([C@@H]2O[C@H](CO)[C@@H](O)[C@H]2O)c(=O)[nH]1` the growth inhibition was inactive: -0.389%. With `Cc1cc(OC(C(=O)O)c2ccccc2)c2c(C)c(Cc3ccccc3)c(=O)oc2c1` (stereo not given) the growth inhibition was inactive: 10.3%. For `C[N+]12CCCCC1C(COC(=O)c1ccc3c(c1)OCO3)CCC2` (stereo not given), the growth inhibition was inactive: 1.34%. With `CCCCNc1cc(C(=O)O)cc(S(N)(=O)=O)c1Oc1ccccc1` the growth inhibition was inactive: -6.02%. For `CC1(C)CC(CC(=O)O)(c2ccc(Cl)cc2)CCO1` (stereo not given), the growth inhibition was inactive: 4.78%. With `COc1c2c(nc3occc13)C(CC=C(C)C)(OC)C(O)CC2` (stereo not given) the growth inhibition was inactive: 3.58%. In the case of `CC(=O)N(CCC1(c2ccc(C)cc2)CCOC(C(C)C)C1)Cc1ccco1` (stereo not given), the growth inhibition is reported as inactive: 8.66%. For `O=C(CCCN1C(=O)/C(=C\c2cccs2)SC1=S)Nc1ccccn1`, the growth inhibition was inactive: -17.8%. With `O=C(O)CCn1cnc2ccccc2c1=O` the growth inhibition was inactive: 3.53%. With `CC(=O)CCCCn1c(=O)c2c(ncn2C)n(C)c1=O` the growth inhibition was inactive: 6.87%. For `O=C1CCCN1CCCn1cnc2c([nH]c3ccc(F)cc32)c1=O`, the growth inhibition was inactive: -13.8%. In the case of `Cc1cccc2c(=O)n3c(nc12)CCCCC3`, the growth inhibition is reported as inactive: -0.943%. With `O=C(NCCN1CCOCC1)c1ccc(Cl)cc1` the growth inhibition was inactive: -11.2%. For `Cc1cc(OC(=O)CNC(=O)OC(C)(C)C)c2c(C)cc(=O)oc2c1`, the growth inhibition was inactive: -4.76%. For `CCCCCC(=O)O[C@]1(C(C)=O)CC[C@H]2[C@@H]3CCC4=CC(=O)CC[C@]4(C)[C@H]3CC[C@@]21C`, the growth inhibition was inactive: -0.835%. With `CNCCCC12CCC(c3ccccc31)c1ccccc12` the growth inhibition was inactive: -0.462% and inactive: -4.64%. For `Oc1ccc(Oc2ncc(Cl)cc2Cl)cc1`, the growth inhibition was inactive: 3.39%. For `CCOC(=O)N1CCc2[nH]c3ccc(C)cc3c2C1`, the growth inhibition was inactive: -0.0125%. In the case of `Cc1nc(N[C@@H](Cc2c[nH]c3ccccc23)C(=O)O)c2oc3ccccc3c2n1`, the growth inhibition is reported as inactive: 3.43%. With `O=C(Oc1ccccc1)Oc1ccc2c(c1)oc(=O)c1ccccc12` the growth inhibition was inactive: -11.1%. In the case of `O=C(O)c1ccc(OCCn2ccnc2)cc1`, the growth inhibition is reported as inactive: -4.4%. With `C#C[C@]1(O)CC[C@H]2[C@@H]3CCc4cc(O)ccc4[C@H]3CC[C@@]21C` the growth inhibition was inactive: -6.87%. In the case of `Cc1occc(=O)c1O`, the growth inhibition is reported as inactive: -24.5%. For `CCOCCn1c(C(C)O)nc2ccccc21` (stereo not given), the growth inhibition was inactive: -8.58%. For `COc1cc2c(cc1OC)C(c1ccccc1)=NCC2`, the growth inhibition was inactive: -0.804%. For `CCC12CN3CC(CC)(CN(C1)C31C(=O)N(C)c3ccc(C)cc31)C2=O` (stereo not given), the growth inhibition was inactive: -2.64%. In the case of `Cn1cnc2c1c(=O)n(CC(O)CO)c(=O)n2C` (stereo not given), the growth inhibition is reported as inactive: -5.12%. For `CC(=O)OCC(=O)[C@@]1(O)[C@H](C)C[C@H]2[C@@H]3CCC4=CC(=O)C=C[C@]4(C)[C@@]3(F)[C@@H](O)C[C@@]21C`, the growth inhibition was inactive: 2.48%. With `Cc1ccccc1NC(=O)NCCc1c[nH]c2ccccc12` the growth inhibition was inactive: 17.7%. With `O=c1c2[nH]c3ccccc3c2ncn1CCC1=CCCCC1` the growth inhibition was inactive: -4.48%. For `Nc1nc2c(ncn2COCCO)c(=O)[nH]1`, the growth inhibition was inactive: -13.5%. With `COc1ccc2nc(Nc3nc(CSc4ccc(C)cc4)cc(=O)[nH]3)nc(C)c2c1` the growth inhibition was inactive: -3.26%. With `Cc1ccc([N+](=O)[O-])cc1NC1OC(CO)C(O)C1O` (stereo not given) the growth inhibition was inactive: 8.08%. For `Cc1ccccc1NC(=O)c1c(C)cc(=O)oc1C`, the growth inhibition was inactive: 0.286%. In the case of `O=C(CNC(=O)OCc1ccccc1)Oc1cc2oc(=O)cc(-c3ccccc3)c2cc1Cl`, the growth inhibition is reported as inactive: -18.5%. In the case of `CC1(C)Cc2nc3oc4c(NCc5ccccc5)ncnc4c3cc2CO1`, the growth inhibition is reported as inactive: 0.415%. In the case of `CCCC1O[C@@H]2C[C@H]3[C@@H]4CCC5=CC(=O)C=C[C@]5(C)[C@H]4[C@@H](O)C[C@]3(C)[C@]2(C(=O)CO)O1` (stereo not given in full), the growth inhibition is reported as inactive: -1.85%. For `CC(=O)N1CCN2C(=O)C1CCCC(=O)c1cc(C(C)C)ccc12` (stereo not given), the growth inhibition was inactive: -1.87%. For `CCOC(=O)c1ncn2c1CN(C)C(=O)c1cc(F)ccc1-2`, the growth inhibition was inactive: 6%. For `CCOC(=O)Cc1c(C)nc(N)[nH]c1=O`, the growth inhibition was inactive: -8.02%. With `COc1cc(SC)ccc1C(=O)NC(C)C` the growth inhibition was inactive: -1.25%. In the case of `COc1ccc(C(=O)NCCC2=CCCCC2)cc1[N+](=O)[O-]`, the growth inhibition is reported as inactive: 15.1%. With `Cc1oc2cc(O)cc(O)c2c(=O)c1-c1ccc2c(c1)OCCCO2` the growth inhibition was inactive: -2.88%. For `CC(C(=O)O)c1cccc(C(=O)c2ccccc2)c1` (stereo not given), the growth inhibition was inactive: 9.39%. With `Cc1ccc2nc(NC3=NC(CC(=O)O)C(=O)N3)nc(C)c2c1` (stereo not given) the growth inhibition was inactive: -13.3%. For `COc1ccc2[nH]c3c(c2c1)CCn1c-3nc2ccccc2c1=O`, the growth inhibition was inactive: 0.118%. In the case of `CC(=O)[C@@]1(O)CC[C@H]2[C@@H]3C[C@H](C)C4=CC(=O)CC[C@]4(C)[C@H]3CC[C@@]21C`, the growth inhibition is reported as inactive: -6.37%. With `CC1(C)S[C@@H]2[C@H](NC(=O)C(C(=O)O)c3ccccc3)C(=O)N2[C@H]1C(=O)O` (stereo not given in full) the growth inhibition was inactive: 1.42%. For `OCC1(CCOc2ccccc2)CCN(CCCn2cccn2)CC1`, the growth inhibition was inactive: -9.52%. For `Cn1c2ccc(CC(=O)O)cc2c2cc(CC(=O)O)ccc21`, the growth inhibition was inactive: -2.96%. For `NS(=O)(=O)c1cc2c(cc1Cl)NC(CSCc1ccccc1)=NS2(=O)=O`, the growth inhibition was inactive: -3.54%. With `CCNC(=O)c1sc2cc(C)ccc2c1Cl` the growth inhibition was inactive: 0.572%. For `COc1cc(NC(=O)N[C@@H](Cc2ccccc2)C(=O)O)cc(OC)c1`, the growth inhibition was inactive: 5.35%. With `Cc1cc(NS(=O)(=O)c2ccc(N)cc2)no1` the growth inhibition was inactive: 2.57%. In the case of `Oc1ccc(COCc2ccccc2)c2cccnc12`, the growth inhibition is reported as inactive: -6.18%. With `O=C(O)c1cc2cc(Cl)cc(Cl)c2oc1=O` the growth inhibition was inactive: -6.7%. In the case of `C[C@]12C[C@H](O)[C@H]3[C@@H](CCC4=CC(=O)CC[C@@]43C)[C@@H]1CC[C@@H]2C(=O)CO`, the growth inhibition is reported as inactive: -1.92%.
